# From PubChem BioAssay AID588590 (National Center for Advancing Translational Sciences (NCATS), 2011)
# Chains of the proteins cited; added tags and fusions are not shown. Lines headed by an entry give the natural chain unless they say otherwise; changes in a name come on top.
# UniProt Q9UNA4: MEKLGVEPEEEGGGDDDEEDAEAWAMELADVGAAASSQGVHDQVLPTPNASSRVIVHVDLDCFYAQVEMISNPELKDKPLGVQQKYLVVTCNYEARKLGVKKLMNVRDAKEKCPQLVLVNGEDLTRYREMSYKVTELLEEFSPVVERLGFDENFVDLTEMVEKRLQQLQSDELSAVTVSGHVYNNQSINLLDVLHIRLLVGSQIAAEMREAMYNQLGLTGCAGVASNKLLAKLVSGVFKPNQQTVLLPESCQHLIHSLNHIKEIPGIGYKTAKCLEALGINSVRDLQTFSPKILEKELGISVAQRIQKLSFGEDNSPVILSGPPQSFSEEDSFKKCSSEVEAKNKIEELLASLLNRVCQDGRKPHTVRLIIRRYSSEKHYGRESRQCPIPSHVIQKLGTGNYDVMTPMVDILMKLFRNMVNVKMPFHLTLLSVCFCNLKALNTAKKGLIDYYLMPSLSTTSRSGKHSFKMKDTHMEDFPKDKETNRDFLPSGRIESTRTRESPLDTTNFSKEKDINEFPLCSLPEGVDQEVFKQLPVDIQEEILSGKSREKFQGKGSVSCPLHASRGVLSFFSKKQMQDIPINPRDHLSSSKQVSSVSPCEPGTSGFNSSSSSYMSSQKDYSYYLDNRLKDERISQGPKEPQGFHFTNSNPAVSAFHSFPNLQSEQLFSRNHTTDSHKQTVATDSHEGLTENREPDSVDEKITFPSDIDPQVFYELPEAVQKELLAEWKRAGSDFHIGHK
# “And” between values parts separate entries of the source, which are not always exact repeats. Equal values may be shown once. Out of some 390,000 compounds screened, about 4,000 (1%) were called active. The inconclusive results got no clear call from the source; some entries with a clear call stand among them for comparison. Calls come from the whole dose curve; as a rule, active = well fitted inhibition curve with a large enough effect; inconclusive = small, poorly fitted or top-dose-only effect, or another doubt; inactive = no such curve, though single readings can be large or run the other way. Where the call is inconclusive, the potency comes from a doubtful curve fit.
# Biological target: DNA polymerase iota (Homo sapiens) (UniProt Q9UNA4)
# Assay: qHTS for Inhibitors of Polymerase Iota
# Conditions: Pol iota fluorescent replication assay, 10 min; series mostly up to 115 µM
# In short: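 Pol iota at 10 nM preincubated 15 min with compounds at room temperature; reaction started with fluorescent substrate, 50 nM final. Fluorescence read kinetically at 0 and 10 min; buffer-only wells as negative control.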
# Potency is the fitted concentration of half-maximal effect.
row,Compound,Potency
1,COc1ccc(C2=CC(=O)C[C@H](c3ccc(F)cc3)C2)c(OC)c1,inactive
2,CCc1nc(Nc2ccc(N3CCN(C(C)=O)CC3)cc2)c2oc3ccccc3c2n1,"inconclusive: 14.1 µM [inhibitor, partial curve]"
3,CCCCNc1c(-c2ccc(SC(C)CC)cc2)nc2ccccn12 (stereo not drawn),"inconclusive: 10 µM [inhibitor, partial curve]"
4,COc1ccc(OC)c(C(c2nnnn2CC2CCCO2)N2CCN(C3CCCC3)CC2)c1 (stereo not drawn),"inconclusive: 79.4 µM [inhibitor, single point]"
5,O=C(Cc1nnc(NC(=O)c2ccccc2)s1)N/N=C/c1ccc(O)cc1,"inconclusive: 39.8 µM [inhibitor, partial curve, poor fit]"
6,Cc1cc(OCCN2CC(C)OC(C)C2)ccc1[N+](=O)[O-] (stereo not drawn),inactive
7,Cc1ccccc1Cn1cc(NC(=O)c2cc(C3CC3)on2)cn1,"inconclusive: 31.6 µM [inhibitor, partial curve]"
8,O=C(N/N=C/c1c[nH]c2ccccc12)c1cccc(O)c1,inactive
9,CCOc1cccc(-c2cc(=O)[nH][nH]2)c1,"inconclusive: 1.41 µM [inhibitor, full curve, poor fit]"
10,COc1ccc(-c2csc(N3CCC(c4ccccc4)CC3)n2)cc1,"inconclusive: 31.6 µM [inhibitor, single point]"
11,COc1ccc(SC[C@H](C)CN2CC[C@H](NC(=O)OCc3ccccc3)CCC2=O)cc1,"inconclusive: 39.8 µM [inhibitor, single point]"
12,O=C(Nc1cc(Cl)ccc1Cl)c1cc(S(=O)(=O)N2CCCc3ccccc32)ccc1F,inactive
13,CCCc1n(CC(O)COC2CCCCC2)c2ccccc2[n+]1C (stereo not drawn),"inconclusive: 70.8 µM [inhibitor, partial curve]"
14,CC(C)N(CCNC(=O)C1CCCN(c2ncnc3c2nc2n3CCCCC2)C1)Cc1ccccc1 (stereo not drawn),inactive
15,COc1cc(NC(=O)c2cc3ccc4cccnc4c3[nH]2)cc(OC)c1OC,"inconclusive: 63.1 µM [inhibitor, partial curve, poor fit]"
16,CCOC(=O)c1ccc(Nc2sc(C(=O)c3cccc([N+](=O)[O-])c3)c(N)c2C#N)cc1,"inconclusive: 56.2 µM [inhibitor, partial curve, poor fit]"
17,O=C1c2cccnc2C(Nc2ccc(S(=O)(=O)N3CCCCCC3)cc2)N1Cc1ccccc1 (stereo not drawn),"inconclusive: 31.6 µM [inhibitor, single point]"
18,CCC1=C(OC(=O)N(CC)CC)N2C(=O)OC(=NCCc3c[nH]c4ccccc34)[C@]2(Cc2ccccc2)[C@H]2C1=CC[C@H]1C(=O)N(c3ccccc3)C(=O)[C@H]12,"inconclusive: 10 µM [inhibitor, partial curve, poor fit]"
19,COc1cc(C2OC(=O)C3C(c4ccc(OC(C)=O)c(OC)c4)OC(=O)C23)ccc1OC(C)=O (stereo not drawn),"inconclusive: 79.4 µM [inhibitor, single point]"

row,Compound,Potency
1,CCOC(=O)c1sc(NC(=O)CSc2nncs2)c(C(=O)OCC)c1C,"inconclusive: 112 µM [inhibitor, single point]"
2,CCS(=O)(=O)c1oc(-c2ccc(F)cc2)nc1S(=O)(=O)c1ccc(Br)cc1,"inconclusive: 44.7 µM [inhibitor, partial curve, poor fit]"
3,N#Cc1ccc(NC(=O)CSc2nc3[nH]c(=O)cc(O)c3s2)cc1,"inconclusive: 17.8 µM [inhibitor, partial curve, poor fit]"
4,COc1ccccc1C1C(C(=O)c2cc3ccccc3o2)=C(O)C(=O)N1CCN1CCOCC1 (stereo not drawn),"inconclusive: 17.8 µM [inhibitor, partial curve, poor fit]"
5,CC(=O)NCc1ccc(C(=O)CSc2nnc(C3CC3)n2C2CC2)cc1,"inconclusive: 31.6 µM [inhibitor, partial curve, poor fit]"
6,CC(=O)C1=C(c2ccc(Cl)c(Cl)c2)N(C(C)=O)n2cnnc2S1,"inconclusive: 25.1 µM [inhibitor, partial curve, poor fit]"
7,Cc1ccc(C(=O)N2N=C(c3ccc(Br)cc3)CC2c2ccccc2O)cc1 (stereo not drawn),inactive
8,CC(C)(C)c1ccc(C(=O)/C(C#N)=C/c2cccs2)cc1,"inconclusive: 12.6 µM [inhibitor, partial curve, poor fit]"
9,CN(C)c1ccc(C=c2c3ccccc3n3c2c2ccccc2[n+]3C)cc1,"inconclusive: 25.1 µM [inhibitor, single point]"
10,S=c1[nH]nc(-c2n[nH]c3c2CCC3)n1/N=C/C=C/c1ccco1,"inconclusive: 14.1 µM [inhibitor, full curve, poor fit]"
11,CC(=O)Oc1ccc(OC(C)=O)c(S(=O)(=O)c2ccc(C)c(C)c2)c1,"inconclusive: 70.8 µM [inhibitor, single point]"
12,O=C(Nc1nc(COc2ccccc2)cs1)C12CC3CC(CC(C3)C1)C2,"inconclusive: 22.4 µM [inhibitor, full curve, poor fit]"
13,Cc1cccc(NC(=O)CSc2nc3ccccc3c3nc(CCc4c(C)n[nH]c4C)nn23)c1,"inconclusive: 10 µM [inhibitor, full curve, poor fit] and inconclusive: 89.1 µM [inhibitor, partial curve, poor fit]"
14,CC(C)c1ccc(N2C(=O)CC(NNC(=O)c3cccnc3)C2=O)cc1 (stereo not drawn),"inconclusive: 39.8 µM [inhibitor, partial curve, poor fit]"
15,CC(C)CCN1C(=O)c2ccc(-c3nc4ccccc4c(=O)o3)cc2C1=O,inactive
16,O=c1c(Cc2ccccc2)c(O)c2cccc3c4c(n1c23)CCCC4,"inconclusive: 44.7 µM [inhibitor, partial curve, poor fit]"
17,O=C(O)C1CCC(NSc2ccccc2[N+](=O)[O-])CC1 (stereo not drawn),"inconclusive: 20 µM [inhibitor, full curve]"
18,O=C(O)CCC(=O)NNc1nc2ccccc2nc1-c1ccccc1,inactive
19,CC(c1nnc(SCC(=O)NC(=O)NCc2ccco2)n1-c1ccc(Cl)cc1)N(C)C (stereo not drawn),"inconclusive: 56.2 µM [inhibitor, partial curve, poor fit]"

# Compounds above containing a thiophene ring, fused or not:
row,Compound,Potency
16,CCOC(=O)c1ccc(Nc2sc(C(=O)c3cccc([N+](=O)[O-])c3)c(N)c2C#N)cc1,"inconclusive: 56.2 µM [inhibitor, partial curve, poor fit]"
1,CCOC(=O)c1sc(NC(=O)CSc2nncs2)c(C(=O)OCC)c1C,"inconclusive: 112 µM [inhibitor, single point]"
8,CC(C)(C)c1ccc(C(=O)/C(C#N)=C/c2cccs2)cc1,"inconclusive: 12.6 µM [inhibitor, partial curve, poor fit]"
